As a reminder, the AUC is concentration integrated over time. Low values mean low exposure, high ones high exposure. One may read the Cmax as the peak of the concentration-time curve.

Chains of the proteins cited; added tags and fusions are not shown. Residues count along the entry.
UniProt Q14191, 517-1238 limits assumed: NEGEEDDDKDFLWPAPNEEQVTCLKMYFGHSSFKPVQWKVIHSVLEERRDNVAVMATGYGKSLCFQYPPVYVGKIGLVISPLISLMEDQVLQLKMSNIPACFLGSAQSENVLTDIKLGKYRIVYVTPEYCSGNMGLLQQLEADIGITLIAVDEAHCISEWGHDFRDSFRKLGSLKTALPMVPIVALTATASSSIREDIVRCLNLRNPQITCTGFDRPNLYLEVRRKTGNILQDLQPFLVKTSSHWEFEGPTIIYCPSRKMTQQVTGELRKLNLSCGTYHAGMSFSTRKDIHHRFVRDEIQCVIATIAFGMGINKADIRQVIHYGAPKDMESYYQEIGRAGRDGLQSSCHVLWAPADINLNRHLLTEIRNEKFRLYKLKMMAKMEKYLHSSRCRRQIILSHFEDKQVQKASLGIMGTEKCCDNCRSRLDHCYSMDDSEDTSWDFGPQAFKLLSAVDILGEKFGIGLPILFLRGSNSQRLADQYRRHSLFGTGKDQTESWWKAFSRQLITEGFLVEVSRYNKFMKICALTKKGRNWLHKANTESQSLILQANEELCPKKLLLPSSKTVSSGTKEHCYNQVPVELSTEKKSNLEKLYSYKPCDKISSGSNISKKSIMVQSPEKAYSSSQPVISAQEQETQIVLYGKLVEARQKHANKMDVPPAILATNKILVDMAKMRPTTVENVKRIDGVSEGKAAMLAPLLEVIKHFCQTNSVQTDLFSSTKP
UniProt Q12809, whole entry: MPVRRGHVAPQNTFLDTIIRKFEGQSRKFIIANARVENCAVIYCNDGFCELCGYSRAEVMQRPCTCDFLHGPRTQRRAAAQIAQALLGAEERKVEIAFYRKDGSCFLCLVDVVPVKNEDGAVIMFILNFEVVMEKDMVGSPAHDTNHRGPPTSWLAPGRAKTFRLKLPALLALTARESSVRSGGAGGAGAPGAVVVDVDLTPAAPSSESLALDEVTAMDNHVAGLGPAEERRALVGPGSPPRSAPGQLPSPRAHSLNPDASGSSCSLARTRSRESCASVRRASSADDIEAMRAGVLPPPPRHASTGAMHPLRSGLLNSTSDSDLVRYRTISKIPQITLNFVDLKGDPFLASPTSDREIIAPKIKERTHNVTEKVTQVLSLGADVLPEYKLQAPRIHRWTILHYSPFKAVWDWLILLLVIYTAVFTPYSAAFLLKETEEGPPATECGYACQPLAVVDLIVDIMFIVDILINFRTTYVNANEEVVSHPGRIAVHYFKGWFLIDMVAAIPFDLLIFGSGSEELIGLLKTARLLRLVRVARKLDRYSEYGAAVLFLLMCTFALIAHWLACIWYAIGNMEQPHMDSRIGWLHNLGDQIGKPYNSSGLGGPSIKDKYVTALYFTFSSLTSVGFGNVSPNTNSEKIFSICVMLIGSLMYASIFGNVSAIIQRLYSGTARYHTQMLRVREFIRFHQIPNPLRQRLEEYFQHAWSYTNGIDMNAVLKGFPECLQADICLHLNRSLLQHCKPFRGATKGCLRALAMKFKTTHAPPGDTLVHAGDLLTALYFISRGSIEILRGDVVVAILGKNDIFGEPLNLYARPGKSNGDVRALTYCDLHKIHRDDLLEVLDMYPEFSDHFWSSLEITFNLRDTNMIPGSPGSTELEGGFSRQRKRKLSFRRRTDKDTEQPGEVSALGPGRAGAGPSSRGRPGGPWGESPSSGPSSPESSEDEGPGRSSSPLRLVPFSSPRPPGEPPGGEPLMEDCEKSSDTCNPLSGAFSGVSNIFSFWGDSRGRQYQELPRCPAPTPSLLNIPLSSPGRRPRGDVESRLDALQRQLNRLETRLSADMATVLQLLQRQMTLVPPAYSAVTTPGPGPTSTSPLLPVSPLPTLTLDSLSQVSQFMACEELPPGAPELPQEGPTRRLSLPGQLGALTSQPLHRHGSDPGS

The match of structure and compound is tentative.

Series [1] is described as follows: Pharmacokinetics in balb/c nude mice (IV and PO). Particulars: for F: 10 mg/kg (vs IV 1 mg/kg).
For series [2], the system named is SW620 (CRC, MSS). Briefly: Cell proliferation inhibition assay (CellTiter-Glo), SW620. Particulars: read-out: SW620 (CRC, MSS), 120 hours. In general terms: ATP-based viability assays read luminescence as a measure of living cells.
Series [3] deals with WRN protein (AA N517-P1238) (Homo sapiens, UniProt Q14191). In words: In vitro WRN enzymatic activity assay (ADP-Glo ATPase assay). The following applies: read-out: ADP-Glo; 10 nM WRN enzyme, 3 hours pre-incubation at 25°C, ssDNA substrate.
In series [4] the test system is human colorectal cancer SW48 cell subcutaneous xenograft tumor. Briefly: In vivo pharmacodynamic study in the SW48 xenograft tumor model. Particulars: for TGI (%) Day21: N=6. On the procedure:
To evaluate the in vivo efficacy of the compounds in a human colorectal cancer SW48 cell subcutaneous xenograft tumor mouse model.
• Species: Mouse • Strain: NU/NU mouse • Age and body weight: 6-8 weeks of age, weighing 20-24 g • Sex: Female • Quantity: 110 (including remaining mice from grouping) • Supplier: Beijing Vital River Laboratory Animal Technology Co., Ltd. • Animal certificate: 110011241105714757
Human colon cancer SW48 cells (supplier: ECACC; catalog No.: 89012702) were cultured in vitro as a monolayer. The culture conditions were as follows: L-15 medium (supplier: Gibco; catalog No.: 11415-064) supplemented with 2 mM glutamine (supplier: Gibco; catalog No.: 25030-081), 10% fetal bovine serum (supplier: Excell; catalog No.: FSP500), and 1% antibiotics (supplier: Gibco; catalog No.: 15240-062) in a cell culture incubator at 37°C with 5% CO2. Routine passaging was performed by digestion twice a week. When the cell confluence reached 80% to 90% and the cell number met the requirement, the cells were harvested, counted, and inoculated.
A 0.1 mL cell suspension containing 3.0*10^6 SW48 cells (the cells were suspended in medium L15:Matrigel =1:1) was subcutaneously inoculated into the right dorsal flank of each mouse. On Day 7 after inoculation, animals with uniform and appropriate tumor sizes were selected for enrollment, with the mean tumor volume reaching 117 mm^3 (range: 89 mm^3 - 161 mm^3). The animals were assigned to groups according to tumor volume using a randomized block design, and dosing was initiated.
The health status and mortality of the animals were monitored daily. Routine inspections included observing the effects of tumor growth and drug treatment on the animals' daily behavioral performance, such as behavioral activity, food and water intake (visual inspection only), body weight changes (body weight was measured three times per week), appearance signs, or other abnormal conditions. Based on the number of animals in each group, the number of animal deaths and side effects within the group were recorded.
Tumor diameters were measured three times per week using a vernier caliper. The formula for calculating tumor volume was: V = 0.5a × b^2, wherein a and b represent the long and short diameters of the tumor, respectively.
The anti-tumor efficacy of the compounds was evaluated by the tumor growth inhibition rate TGI (%). The TGI (%) was calculated as: TGI (%) = [1 - (mean tumor volume of a treatment group at the end of administration - mean tumor volume of the treatment group at the start of administration) / (mean tumor volume of the vehicle control group at the end of treatment - mean tumor volume of the vehicle control group at the start of treatment)] × 100%.

In series [5] the target is hERG potassium channel (Homo sapiens, UniProt Q12809). In words: Whole-cell manual patch clamp assay (CHO-hERG cells). The following applies: for inhibitory effect on hERG potassium channel current (in words): comparison with 21A / general statement; for IC50: read-out: IC50 (µM) for inhibition of hERG potassium channel current, CHO-hERG cells, tail current at -50 mV. The source says: In this assay, the electrophysiological whole-cell manual voltage clamp method was used to test the effect of the compounds on the hERG potassium channel (human Ether-a-go-go Related Gene potassium channel) current.
Cisapride, sodium chloride, potassium chloride, magnesium chloride, calcium chloride, glucose, HEPES, EGTA, and DMSO were purchased from Sigma; the CHO-hERG cell line (Chinese Hamster Ovary) (Chinese hamster ovary cells stably expressing the hERG channel) was constructed internally by the Ion Channel Research Platform of the Shanghai Institute of Materia Medica, Chinese Academy of Sciences.
Cell culture and treatment: CHO cells stably expressing hERG were cultured in 35-mm-diameter cell culture dishes, placed in an incubator at 37°C with 5% CO2, and passaged every 48 hours at a ratio of 1:5. The culture medium formulation: 90% F12 (Invitrogen), 10% fetal bovine serum (Gibco), 100 µg/mL G418 (Invitrogen), and 100 µg/mL Hygromycin B (Invitrogen). On the day of the experiment, the cell culture medium was aspirated, the cells were rinsed once with extracellular fluid, and then 0.25% Trypsin-EDTA (Invitrogen) solution was added, followed by digestion at room temperature for 3-5 minutes. The digestion solution was aspirated, and the cells were resuspended in extracellular fluid, and then transferred to experimental dishes for electrophysiological recording for later use.
Compound preparation: On the day of testing, the compounds were prepared as 20 mM stock solutions in DMSO. The stock solutions were then subjected to 3-fold serial dilutions with DMSO and subsequently diluted with extracellular solution to obtain the desired final test concentrations. Preparation of positive control compound cisapride: 10 µL of 150 µM cisapride DMSO stock solution was taken and added to 4990 µL of extracellular fluid, diluted 500-fold to obtain the desired final test concentration of 300 nM.
Electrophysiological recording process: CHO cells stably expressing the hERG potassium channel were used to record hERG potassium channel currents at room temperature using the whole-cell voltage-clamp technique. Glass microelectrodes were fabricated from glass electrode blanks (BF150-86-10, Sutter) using a puller. After filling with electrode internal solution, the tip resistance was approximately 2-5 MΩ. The glass microelectrodes were inserted into the amplifier headstage to connect to the patch-clamp amplifier. The clamping voltage and data recording were controlled and recorded by pClamp software via a computer, with a sampling frequency of 10 kHz and a filter frequency of 2 kHz. After obtaining the whole-cell recording, the cells were clamped at -100 mV. […]
In general terms: Patch clamp records ionic current or voltage across a cell membrane.

The subject of series [6] is SW48 (CRC, MSI). In words: Cell proliferation inhibition assay (CellTiter-Glo), SW48. Particulars: read-out: SW48 (CRC, MSI); 120 hours, CellTiter-Glo.

For the compound `[2H]C1([2H])CCC(c2nc3n4c(c(N5CCN(C(=O)c6ncnc(C)c6O)[C@H]6CC[C@@H]65)c(=O)n3n2)[C@H](C)C[C@@H]4C(=O)Nc2scc(C(F)(F)F)c2C)=CCO1`, the AUC in series [1] (IV, 1 mg/kg) worked out at 1.652 µg·h/mL; in series [1] (PO, 10 mg/kg), 8.266 µg·h/mL. In addition, the T1/2 is 1.27 h in series [1] (IV, 1 mg/kg) and 1.42 h in series [1] (PO, 10 mg/kg). In addition, the Cmax in series [1] (PO, 10 mg/kg) turned out to be 3.543 µg/mL. In addition, the F in series [1] (PO) was determined as 51%. Besides, the IC50 in series [2] was more than 10000 nM; in series [3], 2.66 nM; in series [5], more than 100 µM; in series [6], 7.29 nM. Also, the “anti-tumor effects (in words)” value in series [4] (3 mg/kg) and in series [4] (10 mg/kg) was “significant anti-tumor effects” each time. The “TGI (%) Day21” value in series [4] (3 mg/kg) is given as 101.70%; in series [4] (10 mg/kg), 102.37%. Further, in series [5], the “inhibitory effect on hERG potassium channel current (in words)” value is “further significantly reduce the inhibitory effect of the compound on hERG potassium channel current”.
Turning to `[2H]C1([2H])CCC(c2nc3n4c(c(N5CCN(C(=O)c6ncnc(C)c6O)[C@H]6CC[C@@H]65)c(=O)n3n2)[C@H](C)C[C@@H]4C(=O)Nc2ccc(C(F)(F)F)cc2Cl)=CCO1`, the AUC in series [1] (IV, 1 mg/kg) turned out to be 3.528 µg·h/mL; in series [1] (PO, 10 mg/kg) it was 22.224 µg·h/mL. For the same compound, the T1/2 in series [1] (IV, 1 mg/kg) was found to be 2.17 h; in series [1] (PO, 10 mg/kg), 2.14 h. The same compound returned a Cmax in series [1] (PO, 10 mg/kg) of 4.923 µg/mL. This compound also gave a F in series [1] (PO) of 60.8%. Further, the IC50 in series [2] was more than 10000 nM; in series [3], 2.15 nM; in series [5], 62.1 µM; in series [6], 4.47 nM. The figures for the “TGI (%) Day21” value in series [4] (0.3 mg/kg), in series [4] (1 mg/kg) and in series [4] (3 mg/kg) were 59.30%, 101.86% and 103.09%, respectively. Moreover, the “anti-tumor effects (in words)” value in series [4] (1 mg/kg) and in series [4] (3 mg/kg) was “significant anti-tumor effects” in each case. The “inhibitory effect on hERG potassium channel current (in words)” value in series [5] is reported as “significantly reduce the inhibitory effect of the compound on hERG potassium channel current”.

The record behind these values is EP4843985A1, “TRIAZOLOPYRIMIDINE DERIVATIVE, PREPARATION METHOD THEREFOR AND USE THEREOF” (dated 2026).
